Measured data: PubChem BioAssay AID686938 (Drosophila RNAi Screening Center, 2013)

Test: 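Looking for CRAC channel components and the factors controlling them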 (primary screen)
System: Drosophila S2R+ cells
Reagent: long dsRNA against Drosophila genes, about 0.25 µg dsRNA per well, roughly 10,000 cells
Duration: 5 days of knock-down before the calcium assay
Treatment: thapsigargin (SERCA pump blocker) to empty calcium stores; entry signal taken 4 min after adding it
Measurement: 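Per-well fluo-4 fluorescence in two replicates, unnormalised, measured in resting cells and 4 min after store depletion by the SERCA blocker thapsigargin; ratio of the two present in few wells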
Scale: calcium entry signal: higher = stronger calcium signal after store depletion; entry to resting ratio: higher = more calcium entry relative to resting level; resting calcium signal: higher = higher resting calcium signal
Active means: 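Called when the plate z-score of the entry-to-rest ratio, mean of duplicates, falls below −3; wells with low overall dye signal (Fmax z below −2) or more than five off-targets excluded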
Calls: active = strongly reduced calcium entry; inactive = no strong reduction
The deposit covers about 23,000 reagents; this is a random part of those with a known target gene and a result. Over the whole deposit, 75 (0.33%) were called active. 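Raw plate signals without normalisation; calls rest on plate z-scores that were not deposited; ratio present for only 364 wells.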 A number with no mark means an inactive call. A plus sign joins genes that one reagent is predicted to hit. Not stated in the record: the dose of the treatment.

no.	Target gene	DRSC id	calcium entry signal, replicate 1 (fluorescence units)	calcium entry signal, replicate 2 (fluorescence units)	entry to resting ratio	resting calcium signal, replicate 1 (fluorescence units)	resting calcium signal, replicate 2 (fluorescence units)
1	Ank2 (Ankyrin 2)	DRSC08894	4.64e7	4.38e7		2.48e7	2.10e7
2	Ank2 (Ankyrin 2)	DRSC09666	3.29e7	4.07e7		1.47e7	1.88e7
3	Ank2 (Ankyrin 2)	DRSC10338	3.24e7	4.21e7		1.58e7	1.95e7
4	Ank2 (Ankyrin 2)	DRSC11278	3.24e7	4.60e7		1.55e7	2.16e7
5	Ank2 (Ankyrin 2)	DRSC22922	3.61e7	3.66e7		1.82e7	1.68e7
6	CG11638	DRSC18167	3.74e7	5.42e7	2.3	1.63e7	2.10e7
7	CG11638	DRSC18640	4.00e7	4.92e7	2.1	1.92e7	1.93e7
8	Pp4-19C (Protein phosphatase 19C)	DRSC20559	3.64e7	3.23e7		1.87e7	1.67e7
9	Pp4-19C (Protein phosphatase 19C)	DRSC21251	3.68e7	4.06e7		2.27e7	2.07e7
10	Pp4-19C (Protein phosphatase 19C)	DRSC23319	3.53e7	3.36e7		1.87e7	1.71e7
11	Obp83cd (Odorant-binding protein 83cd)	DRSC12267	4.87e7	4.01e7		2.28e7	1.91e7
12	CG10477	DRSC09732	2.75e7	6.36e7		1.30e7	2.28e7
13	CG8312	DRSC16406	3.42e7	3.79e7		1.55e7	1.69e7
14	CG17593	DRSC00504	4.20e7	3.31e7		1.82e7	1.51e7
15	PDCD-5 (Programmed Cell Death 5)	DRSC09955	3.40e7	4.88e7		1.53e7	1.81e7
16	CG15005	DRSC08459	3.85e7	3.65e7		2.07e7	1.71e7
17	CG7550	DRSC10875	3.34e7	4.33e7		1.56e7	1.90e7
18	CG11679	DRSC19415	4.08e7	4.32e7		1.84e7	2.01e7
19	Art9 (Arginine methyltransferase 9)	DRSC16584	4.14e7	4.44e7		1.93e7	7.23e7
20	CG14642	DRSC12228	4.01e7	4.96e7		1.90e7	3.45e7
21	Cdk9 (Cyclin-dependent kinase 9)	DRSC04601	1.68e7	2.50e7		9.98e6	1.32e7
22	CG11378	DRSC18627	3.84e7	5.11e7	2	1.93e7	2.10e7
23	CG5592	DRSC10524	1.73e7	4.82e7		8.32e6	1.89e7
24	Not3 (CCR4-NOT transcription complex subunit 3)	DRSC04908	3.94e7			2.16e7	
25	Sgs4 (Salivary gland secretion 4)	DRSC18715	3.28e7	6.97e7	2	1.67e7	2.77e7
26	Eb1	DRSC05016	3.53e7	4.72e7		1.90e7	2.32e7
27	CG13737	DRSC10064	3.52e7	3.48e7		1.70e7	1.51e7
28	TrpRS-m (Tryptophanyl-tRNA synthetase, mitochondrial)	DRSC10848	3.77e7	3.77e7		1.68e7	2.65e7
29	cos (costa)	DRSC07598	3.99e7			2.07e7	
30	Cpr35B (Cuticular protein 35B)	DRSC01949	4.78e7	3.31e7		2.20e7	1.63e7
31	Cpr35B (Cuticular protein 35B)	DRSC22797	3.96e7	3.69e7		1.97e7	1.73e7
32	Gsc (Goosecoid)	DRSC00755	3.00e7	4.06e7		1.54e7	1.82e7
33	fid (fire dancer)	DRSC14885	4.01e7	6.19e7		2.13e7	2.51e7
34	fid (fire dancer)	DRSC16464	4.26e7	5.38e7		2.28e7	2.25e7
35	CG7791	DRSC04891	3.64e7			1.97e7	
36	CG14325	DRSC14804	1.88e7	2.05e7		1.22e7	3.19e7
37	CG7906	DRSC10928	2.50e7	3.18e7		1.15e7	2.34e7
38	Atg10 + CG12822	DRSC06796	2.11e7	2.01e7		1.09e7	1.13e7
39	CG30089	DRSC06126	3.08e7	3.51e7		1.44e7	1.79e7
40	CG30089	DRSC06127	2.57e7	2.35e7		1.81e7	1.69e7
41	CG30089	DRSC06267	3.97e7	3.90e7		1.96e7	1.75e7
42	CG30089	DRSC06268	3.49e7	3.38e7		1.88e7	1.66e7
43	CG30089	DRSC21694	3.57e7	3.54e7		2.18e7	1.76e7
44	CG13148	DRSC06275	3.11e7	4.09e7		1.80e7	1.96e7
45	ChLD3 (Chitin and LDLR binding deacetylase 3)	DRSC02640	3.48e7	2.19e7		1.59e7	1.03e7
46	CG6340	DRSC19987	3.53e7	7.15e7		1.76e7	3.88e7
47	CG15385	DRSC00399	3.62e7	4.13e7		1.71e7	1.79e7
48	Paip2 (polyA-binding protein interacting protein 2)	DRSC14504	3.71e7	4.25e7		1.65e7	1.88e7
49	CG3777	DRSC18489	4.58e7	3.06e7		2.41e7	1.56e7
50	Fpgs1 (Folylpolyglutamate synthase 1)	DRSC19857	2.62e7	3.42e7		1.39e7	1.79e7
51	CG8202	DRSC16396	4.16e7	3.24e7		1.98e7	1.57e7
52	Tom70 (Translocase of outer membrane 70)	DRSC02990	3.63e7	5.67e7		1.69e7	2.77e7
53	Nna1 (Nna1 carboxypeptidase)	DRSC18993	4.57e7	1.63e7		2.73e7	8.41e6
54	Nna1 (Nna1 carboxypeptidase)	DRSC19404	3.84e7	4.12e7		1.85e7	1.99e7
55	SelG (Selenoprotein G)	DRSC19808	2.41e7	2.82e7		1.29e7	1.48e7
56	CG34375	DRSC14684	6.03e7	5.47e7		2.78e7	2.18e7
57	CG34375	DRSC14685	5.76e7	5.55e7		2.63e7	2.28e7
58	CG1924	DRSC19823	4.01e7	4.81e7		1.96e7	2.33e7
59	CG33469	DRSC22900	4.04e7	3.67e7		2.31e7	1.73e7
60	Seipin	DRSC18654	5.42e7	4.37e7	2.1	2.56e7	1.90e7
61	CG13833	DRSC14683	5.32e7	5.00e7		2.45e7	2.02e7
62	zip (zipper)	DRSC04725	2.62e7 (active)	5.56e7		1.69e7	3.34e7
63	zip (zipper)	DRSC22489	3.37e7 (active)	6.07e7		2.06e7	4.07e7
64	rdhB (retinol dehydrogenase B)	DRSC16190	2.91e7	2.97e7		1.33e7	1.30e7
65	CG1572	DRSC19686	2.68e7	3.13e7		1.21e7	1.36e7
66	Gr59c (Gustatory receptor 59c)	DRSC04185	3.78e7	4.43e7		1.88e7	1.99e7
67	cuff (cutoff)	DRSC06315	3.65e7	4.17e7		1.83e7	1.86e7
68	CG14913	DRSC02397	2.85e7	3.73e7		1.38e7	1.54e7
69	Mppe (Metallophosphoesterase)	DRSC07296	2.82e7	3.27e7		1.19e7	1.48e7
70	mRpL21 (mitochondrial ribosomal protein L21)	DRSC11100	2.62e7	3.79e7		1.17e7	1.60e7
71	CG14671	DRSC12257	4.68e7	4.06e7		2.43e7	1.90e7
72	Alg7	DRSC02833	4.04e7			2.27e7	
73	Alg7	DRSC02834	4.23e7	3.49e7		2.07e7	1.76e7
74	Dpm1 (Dolichyl-phosphate mannosyltransferase subunit 1)	DRSC02018	4.71e7	4.44e7		2.41e7	2.02e7
75	Jheh3 (Juvenile hormone epoxide hydrolase 3)	DRSC06533	2.46e7	2.05e7		1.23e7	1.08e7
